Measurements published in publication doi:10.1101/2024.03.13.584817 (bioRxiv, 2024).
Results are given in words; binding and its absence hold for the method and conditions named. Some results given as binding are weak or reduced against the parent protein; the word gives no strength. For part of these data: Where a sequence is shown, tags or fusion partners need not be part of it. Blank lines part the entries; values can stand above or below the binder they belong to.

Key:
[1] = substrate: T1, BOSS ECR (102-510), His-tagged (Drosophila) (UniProt P22815); assay: HDX-MS
T1 sequence: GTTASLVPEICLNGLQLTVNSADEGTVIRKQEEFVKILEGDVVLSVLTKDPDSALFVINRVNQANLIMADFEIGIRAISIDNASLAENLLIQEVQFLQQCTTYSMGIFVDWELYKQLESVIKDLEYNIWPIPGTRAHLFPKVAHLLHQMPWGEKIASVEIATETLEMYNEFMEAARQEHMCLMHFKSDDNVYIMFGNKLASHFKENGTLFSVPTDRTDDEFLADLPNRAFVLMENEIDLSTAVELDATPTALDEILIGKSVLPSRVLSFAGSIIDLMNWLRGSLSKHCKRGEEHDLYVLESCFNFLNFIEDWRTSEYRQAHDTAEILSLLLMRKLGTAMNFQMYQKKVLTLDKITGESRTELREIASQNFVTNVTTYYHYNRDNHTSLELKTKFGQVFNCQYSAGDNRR

[2] = biological target: T2, dROS1 ECR construct 2-3 (440-931), His-tagged (Drosophila) (UniProt P13368); assay: BLI
T2 sequence: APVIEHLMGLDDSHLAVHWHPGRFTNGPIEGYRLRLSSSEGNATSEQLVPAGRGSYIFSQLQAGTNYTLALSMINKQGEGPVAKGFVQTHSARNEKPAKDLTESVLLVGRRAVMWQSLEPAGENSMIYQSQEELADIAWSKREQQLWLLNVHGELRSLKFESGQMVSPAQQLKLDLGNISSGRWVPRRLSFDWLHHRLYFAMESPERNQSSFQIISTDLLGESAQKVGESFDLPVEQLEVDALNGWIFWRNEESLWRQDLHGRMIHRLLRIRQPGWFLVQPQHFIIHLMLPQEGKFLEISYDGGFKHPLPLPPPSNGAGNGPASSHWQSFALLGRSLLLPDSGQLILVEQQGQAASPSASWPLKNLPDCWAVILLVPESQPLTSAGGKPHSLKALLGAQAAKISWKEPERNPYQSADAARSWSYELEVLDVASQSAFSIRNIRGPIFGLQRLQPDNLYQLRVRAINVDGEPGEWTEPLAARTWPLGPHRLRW

[3] = biological target: T3, dROS1 ECR construct 1-4 (126-1298), His-tagged (Drosophila) (UniProt P13368); assay: HDX-MS
T3 sequence: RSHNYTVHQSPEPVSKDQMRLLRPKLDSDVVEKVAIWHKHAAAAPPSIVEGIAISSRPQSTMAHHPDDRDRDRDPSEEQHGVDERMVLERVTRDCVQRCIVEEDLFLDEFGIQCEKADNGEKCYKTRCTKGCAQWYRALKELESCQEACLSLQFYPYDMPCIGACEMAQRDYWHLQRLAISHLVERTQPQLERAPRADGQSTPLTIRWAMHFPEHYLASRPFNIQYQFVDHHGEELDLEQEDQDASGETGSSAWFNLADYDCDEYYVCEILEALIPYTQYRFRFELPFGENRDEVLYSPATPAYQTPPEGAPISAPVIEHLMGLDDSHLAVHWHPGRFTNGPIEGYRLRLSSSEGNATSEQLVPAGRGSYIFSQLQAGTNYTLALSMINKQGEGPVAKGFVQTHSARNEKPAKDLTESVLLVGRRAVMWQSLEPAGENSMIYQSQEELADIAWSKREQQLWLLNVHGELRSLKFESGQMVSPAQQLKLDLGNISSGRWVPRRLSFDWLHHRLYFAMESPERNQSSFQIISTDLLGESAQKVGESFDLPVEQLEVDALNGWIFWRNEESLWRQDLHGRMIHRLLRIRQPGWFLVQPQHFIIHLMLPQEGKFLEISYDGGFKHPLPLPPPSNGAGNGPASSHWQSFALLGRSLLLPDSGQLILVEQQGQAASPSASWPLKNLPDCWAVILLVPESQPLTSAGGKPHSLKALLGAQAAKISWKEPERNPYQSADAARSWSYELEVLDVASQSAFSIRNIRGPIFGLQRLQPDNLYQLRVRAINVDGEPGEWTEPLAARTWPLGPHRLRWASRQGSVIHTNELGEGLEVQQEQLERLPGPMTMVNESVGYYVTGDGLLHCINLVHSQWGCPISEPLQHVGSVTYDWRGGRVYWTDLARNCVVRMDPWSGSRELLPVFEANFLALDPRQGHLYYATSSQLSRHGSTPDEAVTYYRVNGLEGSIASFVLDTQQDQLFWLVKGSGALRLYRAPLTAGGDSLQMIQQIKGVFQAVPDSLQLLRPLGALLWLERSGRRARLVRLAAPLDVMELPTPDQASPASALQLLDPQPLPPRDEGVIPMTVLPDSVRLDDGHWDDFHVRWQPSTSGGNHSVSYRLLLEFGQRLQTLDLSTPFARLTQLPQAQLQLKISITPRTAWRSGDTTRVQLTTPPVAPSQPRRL

[4] = biological target: T2, dROS1 ECR construct 2-3 (440-931), His-tagged (Drosophila); assay: SPR
[5] = biological target: dROS1 ECR construct 1-9 (126-2113) (Drosophila, UniProt P13368 126-2113); assay: SPR

binding [1]: binds weakly
B1: dROS1 ECR construct 1-4 (126-1298) without his-tag (domain or fragment, UniProt P13368 126-1298)
chain: RSHNYTVHQSPEPVSKDQMRLLRPKLDSDVVEKVAIWHKHAAAAPPSIVEGIAISSRPQSTMAHHPDDRDRDRDPSEEQHGVDERMVLERVTRDCVQRCIVEEDLFLDEFGIQCEKADNGEKCYKTRCTKGCAQWYRALKELESCQEACLSLQFYPYDMPCIGACEMAQRDYWHLQRLAISHLVERTQPQLERAPRADGQSTPLTIRWAMHFPEHYLASRPFNIQYQFVDHHGEELDLEQEDQDASGETGSSAWFNLADYDCDEYYVCEILEALIPYTQYRFRFELPFGENRDEVLYSPATPAYQTPPEGAPISAPVIEHLMGLDDSHLAVHWHPGRFTNGPIEGYRLRLSSSEGNATSEQLVPAGRGSYIFSQLQAGTNYTLALSMINKQGEGPVAKGFVQTHSARNEKPAKDLTESVLLVGRRAVMWQSLEPAGENSMIYQSQEELADIAWSKREQQLWLLNVHGELRSLKFESGQMVSPAQQLKLDLGNISSGRWVPRRLSFDWLHHRLYFAMESPERNQSSFQIISTDLLGESAQKVGESFDLPVEQLEVDALNGWIFWRNEESLWRQDLHGRMIHRLLRIRQPGWFLVQPQHFIIHLMLPQEGKFLEISYDGGFKHPLPLPPPSNGAGNGPASSHWQSFALLGRSLLLPDSGQLILVEQQGQAASPSASWPLKNLPDCWAVILLVPESQPLTSAGGKPHSLKALLGAQAAKISWKEPERNPYQSADAARSWSYELEVLDVASQSAFSIRNIRGPIFGLQRLQPDNLYQLRVRAINVDGEPGEWTEPLAARTWPLGPHRLRWASRQGSVIHTNELGEGLEVQQEQLERLPGPMTMVNESVGYYVTGDGLLHCINLVHSQWGCPISEPLQHVGSVTYDWRGGRVYWTDLARNCVVRMDPWSGSRELLPVFEANFLALDPRQGHLYYATSSQLSRHGSTPDEAVTYYRVNGLEGSIASFVLDTQQDQLFWLVKGSGALRLYRAPLTAGGDSLQMIQQIKGVFQAVPDSLQLLRPLGALLWLERSGRRARLVRLAAPLDVMELPTPDQASPASALQLLDPQPLPPRDEGVIPMTVLPDSVRLDDGHWDDFHVRWQPSTSGGNHSVSYRLLLEFGQRLQTLDLSTPFARLTQLPQAQLQLKISITPRTAWRSGDTTRVQLTTPPVAPSQPRRL

binding [2]: binds weakly
B2: BOSS ECR Δ117-130 (domain or fragment, UniProt P22815)
chain: GTTASLVPEICLNGLKQEEFVKILEGDVVLSVLTKDPDSALFVINRVNQANLIMADFEIGIRAISIDNASLAENLLIQEVQFLQQCTTYSMGIFVDWELYKQLESVIKDLEYNIWPIPGTRAHLFPKVAHLLHQMPWGEKIASVEIATETLEMYNEFMEAARQEHMCLMHFKSDDNVYIMFGNKLASHFKENGTLFSVPTDRTDDEFLADLPNRAFVLMENEIDLSTAVELDATPTALDEILIGKSVLPSRVLSFAGSIIDLMNWLRGSLSKHCKRGEEHDLYVLESCFNFLNFIEDWRTSEYRQAHDTAEILSLLLMRKLGTAMNFQMYQKKVLTLDKITGESRTELREIASQNFVTNVTTYYHYNRDNHTSLELKTKFGQVFNCQYSAGDNRR

binding [3]: binds weakly | binding [2]: binds weakly | binding [4]: binds weakly
B3: BOSS ECR (102-510), His-tag cleaved (domain or fragment, Drosophila, UniProt P22815 102-510, looked up)
chain: GTTASLVPEICLNGLQLTVNSADEGTVIRKQEEFVKILEGDVVLSVLTKDPDSALFVINRVNQANLIMADFEIGIRAISIDNASLAENLLIQEVQFLQQCTTYSMGIFVDWELYKQLESVIKDLEYNIWPIPGTRAHLFPKVAHLLHQMPWGEKIASVEIATETLEMYNEFMEAARQEHMCLMHFKSDDNVYIMFGNKLASHFKENGTLFSVPTDRTDDEFLADLPNRAFVLMENEIDLSTAVELDATPTALDEILIGKSVLPSRVLSFAGSIIDLMNWLRGSLSKHCKRGEEHDLYVLESCFNFLNFIEDWRTSEYRQAHDTAEILSLLLMRKLGTAMNFQMYQKKVLTLDKITGESRTELREIASQNFVTNVTTYYHYNRDNHTSLELKTKFGQVFNCQYSAGDNRR

binding [5]: no binding
B4: BOSSDEQ (domain or fragment, UniProt P22815 102-510)
chain: GTTASLVPEICLNGLQLTVNSADEGTVIRKQEEFVKILEGDVVLSVLTKDPDSALFVINRVNQANLIMADFEIGIRAISIDNASLAENLLIQEVQFLQQCTTYSMGIFVDWELYKQLESVIKDLEYNIWPIPGTRAHLFPKVAHLLHQMPWGEKIASVEIATETLEMYNEFMEAARQEHMCLMHFKSDDNVYIMFGNKLASHFKENGTLFSVPTDRTDDEFLADLPNRAFVLMENEIDLSTAVELDATPTALDEILIGKSVLPSRVLSFAGSIIDLMNWLRGSLSKHCKRGEEHDLYVLESCFNFLNFIEDWRTSEYRQAHDTAEILSLLLMRKLGTAMNFQMYQKKVLTLDKITGESRTELREIASQNFVTNVTTYYHYNRDNHTSDEQKTKFGQVFNCQYSAGDNRR
